Measured values taken from the supplement of paper PMC10849652.
This is one part of the list.

Protein sequences, listed by entry. Tags and fused reporters are not part of them. Lines headed by an entry give the natural chain unless they say otherwise; changes in a name come on top.
UniProt Q9Y3B4: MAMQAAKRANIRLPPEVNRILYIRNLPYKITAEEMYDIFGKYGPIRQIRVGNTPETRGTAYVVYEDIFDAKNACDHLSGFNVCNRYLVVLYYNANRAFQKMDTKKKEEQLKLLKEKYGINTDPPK
UniProt Q8WUM9: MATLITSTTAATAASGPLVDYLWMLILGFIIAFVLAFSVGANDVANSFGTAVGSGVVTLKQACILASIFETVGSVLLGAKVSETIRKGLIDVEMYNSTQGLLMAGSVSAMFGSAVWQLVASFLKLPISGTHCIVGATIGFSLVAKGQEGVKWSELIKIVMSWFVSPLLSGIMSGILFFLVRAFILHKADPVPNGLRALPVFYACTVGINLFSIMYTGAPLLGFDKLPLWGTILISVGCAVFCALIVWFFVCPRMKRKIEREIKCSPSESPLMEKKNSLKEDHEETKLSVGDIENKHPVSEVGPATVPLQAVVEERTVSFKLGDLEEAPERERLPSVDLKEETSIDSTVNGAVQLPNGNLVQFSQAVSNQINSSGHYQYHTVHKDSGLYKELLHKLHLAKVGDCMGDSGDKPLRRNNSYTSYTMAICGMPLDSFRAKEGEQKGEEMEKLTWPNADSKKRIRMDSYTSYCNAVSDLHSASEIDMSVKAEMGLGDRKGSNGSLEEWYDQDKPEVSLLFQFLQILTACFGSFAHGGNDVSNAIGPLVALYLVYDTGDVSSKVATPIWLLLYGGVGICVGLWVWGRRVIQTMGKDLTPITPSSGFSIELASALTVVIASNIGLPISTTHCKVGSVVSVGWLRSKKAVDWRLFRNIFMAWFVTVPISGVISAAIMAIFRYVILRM
UniProt P55011: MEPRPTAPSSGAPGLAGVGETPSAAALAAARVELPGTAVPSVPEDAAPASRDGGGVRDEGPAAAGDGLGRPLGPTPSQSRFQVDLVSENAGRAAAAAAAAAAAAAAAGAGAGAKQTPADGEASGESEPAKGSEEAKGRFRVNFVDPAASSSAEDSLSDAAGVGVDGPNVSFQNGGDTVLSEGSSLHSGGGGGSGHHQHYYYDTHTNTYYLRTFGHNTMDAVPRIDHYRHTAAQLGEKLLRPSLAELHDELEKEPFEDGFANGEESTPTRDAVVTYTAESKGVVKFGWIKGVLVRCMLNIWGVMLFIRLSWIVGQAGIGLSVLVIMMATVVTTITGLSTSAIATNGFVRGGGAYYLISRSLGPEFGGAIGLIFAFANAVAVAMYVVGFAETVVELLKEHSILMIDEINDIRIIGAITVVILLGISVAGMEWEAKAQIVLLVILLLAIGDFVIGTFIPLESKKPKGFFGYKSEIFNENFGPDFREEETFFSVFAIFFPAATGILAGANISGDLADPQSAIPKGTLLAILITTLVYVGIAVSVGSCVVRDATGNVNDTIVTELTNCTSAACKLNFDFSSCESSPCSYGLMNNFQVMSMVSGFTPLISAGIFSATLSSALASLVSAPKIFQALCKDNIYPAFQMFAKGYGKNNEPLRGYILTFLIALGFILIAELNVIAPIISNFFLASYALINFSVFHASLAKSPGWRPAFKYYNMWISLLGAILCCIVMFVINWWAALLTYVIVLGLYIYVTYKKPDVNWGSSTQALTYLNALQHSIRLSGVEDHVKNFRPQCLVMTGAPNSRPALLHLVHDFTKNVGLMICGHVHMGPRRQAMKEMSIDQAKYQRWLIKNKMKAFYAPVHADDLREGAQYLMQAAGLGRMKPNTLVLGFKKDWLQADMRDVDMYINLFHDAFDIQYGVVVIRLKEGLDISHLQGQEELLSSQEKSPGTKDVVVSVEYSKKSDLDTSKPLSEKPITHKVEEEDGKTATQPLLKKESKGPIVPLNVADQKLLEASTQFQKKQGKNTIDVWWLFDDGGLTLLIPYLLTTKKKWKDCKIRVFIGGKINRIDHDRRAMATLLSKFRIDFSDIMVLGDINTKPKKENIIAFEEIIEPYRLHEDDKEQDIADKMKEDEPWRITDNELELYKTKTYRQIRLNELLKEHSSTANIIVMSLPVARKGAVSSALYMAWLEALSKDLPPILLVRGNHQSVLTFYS
UniProt Q9Y371: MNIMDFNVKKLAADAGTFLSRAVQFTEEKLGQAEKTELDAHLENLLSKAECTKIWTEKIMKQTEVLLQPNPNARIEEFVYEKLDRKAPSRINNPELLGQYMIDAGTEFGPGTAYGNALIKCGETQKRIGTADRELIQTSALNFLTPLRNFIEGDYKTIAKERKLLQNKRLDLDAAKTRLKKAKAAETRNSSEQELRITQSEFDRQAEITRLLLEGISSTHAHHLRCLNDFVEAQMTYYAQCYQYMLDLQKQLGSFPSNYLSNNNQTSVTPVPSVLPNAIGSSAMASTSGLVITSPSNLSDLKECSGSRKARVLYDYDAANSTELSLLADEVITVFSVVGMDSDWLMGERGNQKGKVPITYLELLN
UniProt O43166: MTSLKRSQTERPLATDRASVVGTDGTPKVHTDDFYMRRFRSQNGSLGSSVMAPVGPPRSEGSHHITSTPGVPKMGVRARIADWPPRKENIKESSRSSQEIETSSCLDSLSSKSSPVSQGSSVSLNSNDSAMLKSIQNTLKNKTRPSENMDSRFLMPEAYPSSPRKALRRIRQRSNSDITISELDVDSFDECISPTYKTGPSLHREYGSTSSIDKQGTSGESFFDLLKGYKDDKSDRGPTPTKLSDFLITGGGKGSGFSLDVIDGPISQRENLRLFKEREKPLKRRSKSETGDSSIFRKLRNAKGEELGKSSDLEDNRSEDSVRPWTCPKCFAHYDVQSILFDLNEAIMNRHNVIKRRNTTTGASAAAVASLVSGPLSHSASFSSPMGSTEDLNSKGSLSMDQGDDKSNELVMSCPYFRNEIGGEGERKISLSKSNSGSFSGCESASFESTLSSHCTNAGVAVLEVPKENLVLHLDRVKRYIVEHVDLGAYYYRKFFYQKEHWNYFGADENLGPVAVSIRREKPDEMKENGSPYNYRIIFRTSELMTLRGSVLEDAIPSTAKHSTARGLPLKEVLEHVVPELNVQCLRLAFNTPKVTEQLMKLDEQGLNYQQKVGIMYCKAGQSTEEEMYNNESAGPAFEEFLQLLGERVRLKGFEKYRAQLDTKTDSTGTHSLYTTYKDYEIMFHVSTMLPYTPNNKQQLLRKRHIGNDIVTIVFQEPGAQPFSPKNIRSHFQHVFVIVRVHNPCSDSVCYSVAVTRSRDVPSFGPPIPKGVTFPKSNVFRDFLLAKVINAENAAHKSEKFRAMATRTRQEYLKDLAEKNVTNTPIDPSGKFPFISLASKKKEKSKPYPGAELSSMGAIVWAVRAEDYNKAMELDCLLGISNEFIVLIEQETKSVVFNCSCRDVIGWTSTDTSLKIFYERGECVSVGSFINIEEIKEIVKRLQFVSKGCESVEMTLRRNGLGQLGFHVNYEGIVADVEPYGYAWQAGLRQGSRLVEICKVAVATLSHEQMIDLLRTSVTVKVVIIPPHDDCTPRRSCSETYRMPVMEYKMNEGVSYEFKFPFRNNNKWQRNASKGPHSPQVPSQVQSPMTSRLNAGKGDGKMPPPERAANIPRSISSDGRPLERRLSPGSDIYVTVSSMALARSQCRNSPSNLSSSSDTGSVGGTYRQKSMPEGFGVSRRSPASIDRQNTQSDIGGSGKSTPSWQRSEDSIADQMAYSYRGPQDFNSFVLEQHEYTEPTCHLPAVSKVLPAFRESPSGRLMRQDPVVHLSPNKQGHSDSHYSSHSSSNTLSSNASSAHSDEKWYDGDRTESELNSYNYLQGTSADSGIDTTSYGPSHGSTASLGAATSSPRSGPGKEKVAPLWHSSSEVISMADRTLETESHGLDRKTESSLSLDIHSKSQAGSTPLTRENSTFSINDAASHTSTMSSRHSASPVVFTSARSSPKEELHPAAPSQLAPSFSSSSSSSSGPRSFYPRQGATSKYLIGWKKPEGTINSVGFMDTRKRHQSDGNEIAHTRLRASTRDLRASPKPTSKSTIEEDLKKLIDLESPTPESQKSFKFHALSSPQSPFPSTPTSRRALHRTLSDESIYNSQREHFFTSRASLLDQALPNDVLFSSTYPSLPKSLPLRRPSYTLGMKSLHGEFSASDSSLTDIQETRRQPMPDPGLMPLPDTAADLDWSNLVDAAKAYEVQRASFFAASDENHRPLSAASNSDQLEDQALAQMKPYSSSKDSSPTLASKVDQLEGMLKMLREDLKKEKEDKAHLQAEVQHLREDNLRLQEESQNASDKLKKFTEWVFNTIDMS
UniProt Q6NT16: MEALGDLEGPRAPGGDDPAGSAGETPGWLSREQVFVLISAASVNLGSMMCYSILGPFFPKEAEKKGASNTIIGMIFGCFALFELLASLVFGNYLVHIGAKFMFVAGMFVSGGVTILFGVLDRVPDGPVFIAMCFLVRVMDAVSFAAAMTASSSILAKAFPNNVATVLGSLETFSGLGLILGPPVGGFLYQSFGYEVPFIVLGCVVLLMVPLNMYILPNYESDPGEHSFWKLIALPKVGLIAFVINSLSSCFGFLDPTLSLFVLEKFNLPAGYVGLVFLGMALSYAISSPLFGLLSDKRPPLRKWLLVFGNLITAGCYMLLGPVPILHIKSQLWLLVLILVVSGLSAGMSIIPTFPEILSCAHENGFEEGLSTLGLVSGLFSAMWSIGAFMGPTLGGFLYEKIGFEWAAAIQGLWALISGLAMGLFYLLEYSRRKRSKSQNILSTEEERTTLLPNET
UniProt Q96BR1: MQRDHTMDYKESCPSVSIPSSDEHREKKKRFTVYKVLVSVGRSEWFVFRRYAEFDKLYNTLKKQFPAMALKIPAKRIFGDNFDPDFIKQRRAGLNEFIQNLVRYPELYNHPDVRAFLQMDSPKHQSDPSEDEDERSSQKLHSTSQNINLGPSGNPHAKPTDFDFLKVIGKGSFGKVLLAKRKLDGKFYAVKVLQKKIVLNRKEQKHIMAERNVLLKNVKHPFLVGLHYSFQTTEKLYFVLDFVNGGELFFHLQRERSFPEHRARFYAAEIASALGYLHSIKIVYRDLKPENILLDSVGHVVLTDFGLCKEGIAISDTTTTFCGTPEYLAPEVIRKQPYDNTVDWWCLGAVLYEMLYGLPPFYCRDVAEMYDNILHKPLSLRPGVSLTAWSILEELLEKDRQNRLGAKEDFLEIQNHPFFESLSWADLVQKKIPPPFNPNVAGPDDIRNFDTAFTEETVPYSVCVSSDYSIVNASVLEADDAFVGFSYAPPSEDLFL
UniProt Q7L8J4: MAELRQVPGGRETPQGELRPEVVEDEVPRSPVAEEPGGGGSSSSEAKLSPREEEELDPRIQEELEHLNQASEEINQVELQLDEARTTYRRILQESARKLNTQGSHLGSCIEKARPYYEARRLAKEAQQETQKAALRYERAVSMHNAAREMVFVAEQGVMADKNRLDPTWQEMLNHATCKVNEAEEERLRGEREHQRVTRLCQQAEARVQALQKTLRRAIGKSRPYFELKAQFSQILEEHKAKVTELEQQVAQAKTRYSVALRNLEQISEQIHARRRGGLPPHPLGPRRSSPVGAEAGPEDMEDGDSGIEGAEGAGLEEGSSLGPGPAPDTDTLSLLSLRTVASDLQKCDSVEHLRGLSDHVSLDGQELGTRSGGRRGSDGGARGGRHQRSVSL
UniProt Q01105, whole entry, looked up: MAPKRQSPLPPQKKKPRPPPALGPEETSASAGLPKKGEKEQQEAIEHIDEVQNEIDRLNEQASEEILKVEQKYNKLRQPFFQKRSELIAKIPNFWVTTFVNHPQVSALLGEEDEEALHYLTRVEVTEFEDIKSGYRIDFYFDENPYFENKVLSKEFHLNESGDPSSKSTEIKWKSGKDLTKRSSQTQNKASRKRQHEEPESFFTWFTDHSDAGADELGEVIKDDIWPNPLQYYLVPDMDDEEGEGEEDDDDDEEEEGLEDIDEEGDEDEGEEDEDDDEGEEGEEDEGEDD
UniProt Q9Y3L3: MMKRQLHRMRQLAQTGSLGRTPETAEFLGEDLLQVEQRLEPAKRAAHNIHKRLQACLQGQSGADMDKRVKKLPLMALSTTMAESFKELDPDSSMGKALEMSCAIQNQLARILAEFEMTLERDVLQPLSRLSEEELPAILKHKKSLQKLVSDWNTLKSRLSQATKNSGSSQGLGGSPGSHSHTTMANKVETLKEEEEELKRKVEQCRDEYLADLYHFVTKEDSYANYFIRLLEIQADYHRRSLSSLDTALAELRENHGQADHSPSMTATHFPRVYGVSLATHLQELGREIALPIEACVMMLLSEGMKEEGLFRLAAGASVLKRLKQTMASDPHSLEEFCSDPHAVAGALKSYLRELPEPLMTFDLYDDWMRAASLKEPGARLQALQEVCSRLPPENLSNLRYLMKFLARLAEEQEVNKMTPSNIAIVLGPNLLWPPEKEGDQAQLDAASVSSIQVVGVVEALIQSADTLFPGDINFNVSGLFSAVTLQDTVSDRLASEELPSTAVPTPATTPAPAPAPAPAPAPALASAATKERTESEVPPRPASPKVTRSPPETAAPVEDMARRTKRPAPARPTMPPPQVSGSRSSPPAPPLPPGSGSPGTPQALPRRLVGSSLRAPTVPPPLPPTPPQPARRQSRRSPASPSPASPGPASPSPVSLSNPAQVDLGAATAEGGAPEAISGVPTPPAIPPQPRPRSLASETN

What follows are targets tested with O=C(CCCCCCC(=O)Nc1ccccc1)NO [vorinostat] (assay: log2 fold change, soluble protein after heating vs DMSO (PISA); higher = thermal stabilisation; K562 lysate, 10 uM; active = over 0.2 and 3.5 SD of the protein, either way, in both replicates (recomputed)).
Method in brief: (§1)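 Quantification was by TMTpro 16plex LC-MS/MS with equalised channel sums, applied to the supernatant after 21,000xg for 90 min. Samples were crude K562 extract at 1 mg/mL protein in PBS pH 7.4 with 1 mM MgCl2, treated with 10 μM compound for 30 min, heated for 3 min across 48°C-58°C, pooled and brought to 0.5% NP-40 at 4°C. Values are log-two fold changes in thermal stability relative to solvent controls, from duplicates.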
For SF3B6 (UniProt Q9Y3B4), the log2 fold change was active: -0.273. For SINHCAF (UniProt Q9NP50), the log2 fold change was inactive: -0.107. In the case of SLC16A1 (UniProt P53985), the log2 fold change is reported as active: -0.62. In the case of SH3BP2 isoform 4 (UniProt P78314), the log2 fold change is reported as inactive: -0.27. SLC20A1 (UniProt Q8WUM9) was tested, and the log2 fold change was inactive: 0.062. For SLC12A2 (UniProt P55011), the log2 fold change was inactive: 0.05. SERPINB6, A0A087X1N8 was tested, and the log2 fold change was inactive: 0.124. For SH3BGR (UniProt P55822), the log2 fold change was inactive: 0.09. In the case of SF3B5 (UniProt Q9BWJ5), the log2 fold change is reported as inactive: -0.34. For SIL1 (UniProt Q9H173), the log2 fold change was inactive: 0.113. In the case of SF3A1 (UniProt Q15459), the log2 fold change is reported as inactive: 0.023. For SHFL (UniProt Q9NUL5), the log2 fold change was inactive: 0.119. In the case of SLC22A18 (UniProt Q96BI1), the log2 fold change is reported as inactive: -0.044. In the case of SFR1 isoform 2 (UniProt Q86XK3), the log2 fold change is reported as inactive: -0.074. With SLC12A9 (UniProt Q9BXP2) the log2 fold change was inactive: 0.179. With SGO1 (UniProt Q5FBB7) the log2 fold change was inactive: -0.114. For SETX isoform 4 (UniProt Q7Z333), the log2 fold change was inactive: -0.202. For SIRT6 (UniProt Q8N6T7), the log2 fold change was inactive: -0.057. For SFN (UniProt P31947), the log2 fold change was inactive: 0.107. SETDB1 (UniProt Q15047) was tested, and the log2 fold change was inactive: 0.059. SIAH2 (UniProt O43255) was tested, and the log2 fold change was inactive: -0.052. With SKOR2 (UniProt Q2VWA4) the log2 fold change was inactive: 0.184. In the case of SH3GLB1 isoform 2 (UniProt Q9Y371), the log2 fold change is reported as inactive: -0.189. In the case of SERPINI1 (UniProt Q99574), the log2 fold change is reported as inactive: 0.124. For SHCBP1 (UniProt Q8NEM2), the log2 fold change was active: -0.37. For SLC19A1 (UniProt P41440), the log2 fold change was inactive: 0.01. SKP2 (UniProt Q13309) was tested, and the log2 fold change was inactive: -0.203. With SIPA1L1 (UniProt O43166) the log2 fold change was inactive: 0.164. In the case of SLC18B1 (UniProt Q6NT16), the log2 fold change is reported as inactive: 0.064. In the case of SGK3 (UniProt Q96BR1), the log2 fold change is reported as inactive: 0.04. SKA1 (UniProt Q96BD8) was tested, and the log2 fold change was active: -0.586. For SH3BP5L (UniProt Q7L8J4), the log2 fold change was inactive: -0.025. With SHMT1 (UniProt P34896) the log2 fold change was inactive: 0.117. For SET isoform 2 (UniProt Q01105), the log2 fold change was inactive: 0.104. For SH3BP1 (UniProt Q9Y3L3), the log2 fold change was inactive: 0.189. In the case of SLC1A4 (UniProt P43007), the log2 fold change is reported as inactive: 0.036. For SIRT3 (UniProt Q9NTG7), the log2 fold change was inactive: 0.083.

What follows are targets tested with O=C(O)c1ccc2c(c1)nc(Nc1cccc(Cl)c1)c1ccncc12 [silmitasertib] in the same assay as above.
Method in brief: as §1
SF3B6 (UniProt Q9Y3B4) was tested, and the log2 fold change was inactive: 0.026. For SINHCAF (UniProt Q9NP50), the log2 fold change was inactive: -0.172. For SLC16A1 (UniProt P53985), the log2 fold change was inactive: -0.012. In the case of SH3BP2 isoform 4 (UniProt P78314), the log2 fold change is reported as inactive: 0.092. SLC20A1 (UniProt Q8WUM9) was tested, and the log2 fold change was inactive: -0.05. In the case of SLC12A2 (UniProt P55011), the log2 fold change is reported as inactive: -0.003. For SERPINB6, A0A087X1N8, the log2 fold change was inactive: -0.026. SH3BGR (UniProt P55822) was tested, and the log2 fold change was inactive: -0.028. For SF3B5 (UniProt Q9BWJ5), the log2 fold change was inactive: 0.03. SIL1 (UniProt Q9H173) was tested, and the log2 fold change was inactive: -0.104. In the case of SF3A1 (UniProt Q15459), the log2 fold change is reported as inactive: -0.036. For SHFL (UniProt Q9NUL5), the log2 fold change was inactive: -0.077. In the case of SLC22A18 (UniProt Q96BI1), the log2 fold change is reported as inactive: 0.006. For SFR1 isoform 2 (UniProt Q86XK3), the log2 fold change was inactive: 0.023. For SLC12A9 (UniProt Q9BXP2), the log2 fold change was inactive: 0.111. For SGO1 (UniProt Q5FBB7), the log2 fold change was inactive: 0.049. With SETX isoform 4 (UniProt Q7Z333) the log2 fold change was inactive: 0.036. For SIRT6 (UniProt Q8N6T7), the log2 fold change was inactive: 0.149. For SFN (UniProt P31947), the log2 fold change was inactive: -0.032. SETDB1 (UniProt Q15047) was tested, and the log2 fold change was inactive: -0.041. In the case of SIAH2 (UniProt O43255), the log2 fold change is reported as inactive: 0.052. SKOR2 (UniProt Q2VWA4) was tested, and the log2 fold change was inactive: 0.089. In the case of SH3GLB1 isoform 2 (UniProt Q9Y371), the log2 fold change is reported as inactive: 0.008. For SERPINI1 (UniProt Q99574), the log2 fold change was inactive: -0.021. For SHCBP1 (UniProt Q8NEM2), the log2 fold change was inactive: 0.04. For SLC19A1 (UniProt P41440), the log2 fold change was inactive: -0.024. With SKP2 (UniProt Q13309) the log2 fold change was inactive: 0.012. For SIPA1L1 (UniProt O43166), the log2 fold change was inactive: -0.112. SLC18B1 (UniProt Q6NT16) was tested, and the log2 fold change was inactive: 0.026. With SGK3 (UniProt Q96BR1) the log2 fold change was inactive: 0.236. SKA1 (UniProt Q96BD8) was tested, and the log2 fold change was inactive: -0.036. With SH3BP5L (UniProt Q7L8J4) the log2 fold change was inactive: -0.068. With SHMT1 (UniProt P34896) the log2 fold change was inactive: -0.002. SET isoform 2 (UniProt Q01105) was tested, and the log2 fold change was inactive: -0.038. For SH3BP1 (UniProt Q9Y3L3), the log2 fold change was inactive: -0.045. With SLC1A4 (UniProt P43007) the log2 fold change was inactive: -0.022. With SIRT3 (UniProt Q9NTG7) the log2 fold change was inactive: 0.015.
